Measurements: paper PMC9459017, “Pharmacokinetic and pharmacodynamic similarity evaluation between an insulin glargine biosimilar product and Lantus® in healthy subjects: Pharmacokinetic parameters of both parent insulin glargine and M1 were used as endpoints” (Frontiers in Pharmacology, 2022)

Experiment: Quality of the clamps: blood glucose concentration statistics
Format: in vivo, human
Details: single 0.4 U/kg s.c., 24 h euglycemic clamp, healthy volunteers; for Mean blood glucose concentraion after dose: mean ± SD

Substance	Coefficient of variation of the blood glucose concentrations [%]	Mean blood glucose concentraion after dose [mmol/L]
recombinant insulin glargine [Test drug]	5.0	4.27 ± 0.21
Lantus [Reference drug]	4.8	4.23 ± 0.20
